Source: paper doi:10.1101/384354

Chains of the proteins cited; added tags and fusions are not shown.
UniProt Q9CWH6: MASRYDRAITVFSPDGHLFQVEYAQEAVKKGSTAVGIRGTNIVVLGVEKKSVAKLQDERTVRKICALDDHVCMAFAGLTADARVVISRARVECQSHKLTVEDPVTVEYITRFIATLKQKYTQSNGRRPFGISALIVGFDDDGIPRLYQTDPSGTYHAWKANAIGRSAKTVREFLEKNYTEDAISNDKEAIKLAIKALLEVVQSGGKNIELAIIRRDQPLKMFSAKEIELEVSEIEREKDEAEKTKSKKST

Target: PSMA8 (testis-specific α4s subunit of the spermatoproteasome) (mouse (endogenous in testis)) (UniProt Q9CWH6)
Assay: affinity purification with mass spectrometry

| binding | Binder |
| --- | --- |
| binds | TDRD9 (protein, UniProt Q14BI7 1-1383) MLRKLTVDQINDWFTIGKTVTNVELLGLPPAFPAEAPREEVQRSEEVPNEDPTAQAQVPVKATAPARPASTSGRSLSQRSSEMEYINKYRQLEEQELDIYGQDQPPSGPGLRSPLAKLSNVACIPETTYKYPDLPINRCKEEVISLIESNSVVIIHGATGSGKSTQLPQYVLDHYTQRSAFCNIVVTQPRKIGASSIARWISKERSWTLGGLVGYQVGLEKIATEDTRLIYMTTGVLLQKIVSAKSLMEFTHIFIDEVHERTEEMDFLLLVVRKLLRTNSRFVKVVLMSATINCKQFADYFAVPVQNKMNPAYVFEVEGKPHAIEEYYLNDLGHIYHSGLPYRLEEPVITKDVYEVAVSLIQMFDDLDMKESGNKTWSGAQFVSERSSVLVFLPGLGEINYMHELLTNMIHKRLQVYPLHSSVTLEEQNNVFLSPVPGYRKIILSTNIAESSVTVPDVKYVIDFCLTRTLVCDEDTNYQSLRLSWASKTSCDQRKGRAGRVSKGYCYRLIPRDFWDSAIPDHVVPEMLRCPLGSTILKVKLLDMGEPRALLATALSPPSLSDIERTILLLKEVGALAVSGQREDENPHDGELTFLGRVLAQLPVSQQLGKLVVLGHVFGCLDECLIIAAALSLKNFFTMPFRQHLDGYRNKVHFSGSSRSDCLALVEAFRAWQACRQRGELRRPKDELDWGRLNYIQIKRIREVAELYEELKNRISQFNMFVGPHHPVLDQEYPYKQRFILQVVLAGAFYPNYFTFGQPDEEMAVRELAGKDPKTTVVLKHIPPYGFLYYKQLQSLFRQCGQVKSIVFDGAKAFVEFSRNPTERFKTLPAVNLAVKMSQLKVSLELSVHAAEEIEGKVQGGSVSKLRNTRVNVDFQKQTVDPMQVSFNTLDRPRTVADLLLTIDVTEVVEVGHFWGYRIDERNAELLKQLTAEINRLELVPLPIHPHPDLVCLAPFTDYNKESYFRAQILYVSGNSAEVFFVDYGNRSHVDLDLLREIPCQFLELPFQALEFKICKMRPSAKSLICGEHWSGGAHGRFAALVGGCPLLVKVFSIVHSVLHVDVYRYSGAQDAVNVRDVLIREGYAELAEESYESKQSYEVLKGFFAKSVDTMPDGSVSSPLKDDEKHLLRILLESFASNRLGAPNCKAVLHGPFNPYELKCHSLTRISKFRCVWIEKESINSVVISDSPADLHQRMLVAASLSVNETGSTMLLRETSLMPHIPGLPALLSMLFAPVMELRVDREGKCYTGVLCGLGWNSATEAPILPEHDIELAFDVRLNVEDIVEINILRAAINKLVCDGPNGSKYLGPERIAQLQENARQKLLGLFCRLKPREKITPQWHEKPYEWNQVDPRLIMEQAEPEGSPGKSTSLYQLHTPVVLSP |
| binds | SPATA5 (Spermatogenesis-associated protein 5) (protein, UniProt Q3UMC0 1-893) MSSKKNRKRQKEGAEGASPSLSAAPSRSGTSTPFAQPSPAAPGMLVVTNFLEKVDGKVPKTFQNSLVHLGLNTMKSANICIGRPVLLTSLDGKQEVYTAWPVAGFPGGKVGLSEMAQKNVGVRAGETIQVQPLLGAVLQAQEMDLALSDKDKEINEEELTGCILRKLDGKIVLPGNFLYCTFYGRLCKLQVLQVKGTDGTTLGKLQSASGTDAQGMASEHSSMESSDVDLSFQLSQLDLKEPQSPSSQSTPCKPTNDRTVNKAGEVLLDVTQSPRDGSGLGLEESTGLKCSFDSSKEGNTQPVSEEKLLKPASAGTKSNTDTFYFISSTTRINLRKICTNSKEQDSQFKVTYDMIGGLNSQLKAIREIIELPLKQPELFKSYGIPAPRGLLLYGPPGTGKTMIARAVANEVGAYVSVINGPEIISKFYGETEARLRQIFAEATLRHPSIIFIDELDALCPKREGAQSEVEKRVVASLLTLMDGIGSEGSEGRVLVLGATNRPQALDAALRRPGRFDKEIEIGIPNAQDRLDILQKLLRRVPHLLTKAELLRLANNAHGYVGADLKALCNEAGLHALRRVLRKQPNLPDSKVAGMVKITLNDFLQGMNDIRPSAMREVAIDVPNVSWSDIGGLENIKLKLKQAVEWPLKHPKSFNRMGIQPPKGVLLYGPPGCSKTMIAKALANESGLNFLAIKGPELMNKYVGESERAVREIFRKARAVAPSIIFFDELDALAVERGSSSGAGNVADRVLAQLLTEMDGIEQLKNVTVLAATNRPDRIDKALMRPGRIDRIIYVPLPDAATRREILNLQFHSMPISNEVDLDELVLQTDTYSGAEIIAVCKEAALLALEENIKADCIMKRHFTQALSIVTPRIPESLRRFYEDYQEKSGLHTV |
| binds | SPATA20 (Spermatogenesis-associated protein 20) (protein, UniProt Q80YT5 1-790) MSHHSSPPPKHKGEHKGHGLPRGSERGSSSRDKDRSATTVSSSAPMPAGGKSSRTNCPPPAPPKTVNRLINEKSPYLLQHAYNPVDWYPWGQEAFDKAKKENKPIFLSVGYSTCHWCHMMEEESFQNEEIGRLLNENFICVMVDREERPDVDKVYMTFVQATSSGGGWPMNVWLTPGLQPFVGGTYFPPEDGLTRVGFRTVLMRICDQWKLNKNTLLENSQRVTTALLARSEISVGDRQIPASAATMNSRCFQQLDEGYDEEYGGFAEAPKFPTPVILNFLFSYWLSHRLTQDGSRAQQMALHTLKMMANGGIQDHVGQGFHRYSTDRQWHIPHFEKMLYDQAQLSVVYTQAFQISGDEFYADVAKGILQYVTRTLSHRSGGFYSAEDADSPPERGMKPQEGAYYVWTVKEVQQLLPEPVVGASEPLTSGQLLMKHYGLSEVGNINSSQDPNGELHGQNVLMVRYSLELTAARYGLEVEAVRALLNTGLEKLFQARKHRPKAHLDNKMLAAWNGLMVSGFAVTGAALGMEKLVAQATSGAKFLKRHMFDVSSGRLKRTCYAGTGGTVEQSNPPCWGFLEDYAFVVRGLLDLYEASQESSWLEWALRLQDTQDKLFWDPRGGGYFCSEAELGADLPLRLKDDQDGAEPSANSVSAHNLLRLHSFTGHKDWMDKCVCLLTAFSERMRRVPVALPEMVRTLSAQQQTLKQIVICGDPQAKDTKALLQCVHSIYVPNKVLILADGDPSSFLSRQLPFLSSLRRVEDRATVYIFENQACSMPITDPCELRKLLHQ |
| binds | TDRD1 (protein, UniProt Q99MV1 1-1172) MMPRNNLEASTCKMAEPFNFEKKESKPPPQDPLRSPVAQHNHPTFRLKSPENGNTKNNFLLCEQNKQYLASQEDSSVVSSNPAVVNGEVGGSKGDRKPPPTGNPVSPLSLGNSSPPNQVKTKPSSNVTPEKSKKSHKLFENALSVNNPALFNSLGPPLRSTTCHRCGLFGSLRCSQCKQTYYCSTACQRRDWSSHSTICRPVQQSLNKLEDNKSPFETKAIEVKSEVDCPPGVTKEITAGAERVMFSDLRSLQLKKTMEIKGTVTEFKHPSNFYIQLYSSEVLENMNQLSTSLKETYANVVPEDGYLPVKGEVCVAKYTVDQTWNRAIVQAVDVLQRKAHVLYIDYGNEEMIPIDSVHPLSRGLDLFPPSAIKCCVSGVIPTAGEWSEGCVAAVKALLFEQFCSVKVMDILEEEVLTCAVDLVLQSSGKQLDHVLVEMGYGVKPGEQSSTEQSVDHSALEDVGRVTVESKIVTDRNALIPKVLTLNVGDEFCGVVAHIQTPEDFFCQQLQSGHKLAELQESLSEYCGHVIPRSDFYPTIGDVCCAQFSEDDQWYRASVLAYASEESVLVGYVDYGNFEILSLKRLCPIIPKLLDLPMQALNCVLAGVKPSLGIWTPEAVCVMKEMVQNRMVTVRVVGMLGTRALVELIDKSVAPHVSASKALIDSGFAIKEKDVADKGSSMHTASVPLAIEGPAEALEWTWVEFTVDETVDVVVCMMYSPGEFYCHFLKDDALEKLDDLNQSLADYCAQKPPNGFKAEIGRPCCAFFSGDGNWYRALVKEILPSGNVKVHFVDYGNVEEVTTDQLQAILPQFLLLPFQGMQCWLVDIQPPNKHWTKEATARFQACVVGLKLQARVVEITANGVGVELTDLSTPYPKIISDVLIREQLVLRCGSPQDSLMSRPANQHKQIDSHRVQASPSAEQWKTMELPVNKTIAANVLEIISPALFYAIPSEMSENQEKLCVLAAELLEHCNAQKGQPAYRPRTGDACCAKYTNDDFWYRAIVLETSESDVKVLYADYGNIETLPLSRVQPIPASHLELPFQIIRCSLEGPMELNGSCSQLVMELLRNAMLNQSVVLSVKAISKNVHAVSVEKCSENGMINIAENLVMCGLAENLTSKRKSASTKEIPHSRDCCCTELQKQIEKHEQILLFLLNNPTNQSKFTEMKKLLRS |

Further lines, the binder ahead of its results:

| Binder | binding |
| --- | --- |
| MAEL (protein, UniProt Q8BVN9 1-434) MPNRRASRNAYYFFVQEKIPELRRRGLPVARVADAIPYCSADWALLREDEKEKYSEMAREWRAAQGKDSGPSEKQKLVSTPLRRPGMLVPKPSISPPDMSNLSIKSDQALLGGIFYFLNIFSHGELPPHCEQRFLPCEIGCVKYSLQEGIMADFHSFIHPGEIPRGFRFHCQAASDSSHKIPISNFEFGHDQATVLQNLYKFIHPNPGNWPPIYCKSDDRARVNWCLKRMERASEIRQDLELLTVEDLVVGIYQQKFLKEPSKTWVRSLLDVAMWDYSSNTRCKWHEENDILFCALAVCKKIAYCISNSLATLFGIQLTGAHVPLQDYEASNSVTPKMVVLDAGRYQKLRVESPGFCHFNSYNQEQRSNTSTGYYPSGVKISGPHSSVRGRGITRLLESISNSSNNIHRFSSCETSLSPYTPQKDGYKPFSSFS | binds |
| SPAG1 (Sperm-associated antigen 1) (protein, UniProt Q80ZX8 1-901) MTAKAKDCPSLWGFGTTKTFKIPIEHLDFKYIENCSDVKHLEKILYVLRSGEEGYYPELTEFCEKCLTNLAPKSRALRKDKPAETASSFSAEEWEKIDSDLKSWVSEIKREENTCHFHDPENHPGVEDPLPPVRGSTCCPHSGKETYSKSKTAKKRIPRDYAEWDKFDVEKECSKIDEDYKEKTVINNKAHLSKIETKIETAGLTEKEKSFLANREKGKGNEAFYSGDYEEAVMYYTRSLSALPTAIAYNNRAQAEIKLQRWSSALEDCEKALELDPGNVKALLRRATTYKHQNKLQEAVDDLRKVLQVEPDNDLAKKTLSEVERDLKNSEPVSELQTKGKRMVIEEVENSGDEGGKGSADEREDGGSDEAAMGNIQKKLMVRRSEGGRRSRRGRTPGPRAEQQGGLRETATASTGDSHYPEEPRAADNPSGLKRRGNELFRGGQFAEAAAQYSVAIAQLEPTGSANADELSILYSNRAACYLKEGNCRDCIQDCNRALELHPFSVKPLLRRAMAYETLEQYRNAYVDYKTVLQIDCGIQLASDSANRIARILTELDGSKWRERLPPIPAVPTSEPLRVWLPAAETPDQDPCPNNCMPSITDEKMFQALKEEGNQLVKDKNYKDAISKYNECLKINSKACAIYTNRALCYLKLGQFEEAKLDCEQALQIDGENVKASHRLALAQKGLENCRESGVDPSQVLLSPDSSEAARHLDTKNDTAPPSKGRERRRIQVQEVDGSSDEEPERPAEASATSAPARDGVEDGGSAEPAEKLDVSKPTNAYEFGQVLSTISARKDEEACAHLLAITAPKDLPLLLSNKLEGDTFLLLIQSLKSHLVAKDPSLVYEHLLYLSKAERFKTMLTLINKGQKEQMAQLFDGLSDTQSDGLTAEDVQALRRQYEL | binds |
| DAZL (deleted in azoospermia) (protein, UniProt Q64368 1-298) MSATTSEAPNSAVSREASTQSSSATTSQGYVLPEGKIMPNTVFVGGIDVRMDETEIRSFFARYGSVKEVKIITDRTGVSKGYGFVSFYNDVDVQKIVESQINFHGKKLKLGPAIRKQNLCTYHVQPRPLIFNPPPPPQFQSVWSSPNAETYMQPPTMMNPITQYVQAYPPYPSSPVQVITGYQLPVYNYQMPPQWPAGEQRSYVIPPAYTTVNYHCSEVDPGADILPNECSVHDAAPASGNGPQKKSVDRSIQTVVSCLFNPENRLRNSLVTQDDYFKDKRVHHFRRSRAVLKSDHLC | binds |

No constants are given. Whether binding was seen depends on the method and setting. Binding seen in cells or lysates may run through a third protein. Here binding means that the protein was enriched with, or labelled near, the bait; the list need not be complete.
